Read-outs that look alike come from different tables or passages of the source. These are yes or no findings as the source states them, for the method shown. Binding seen in cells or lysates may run through a third protein. Some results given as binding are weak or reduced against the parent protein; the word gives no strength.
T1: TERB1 (wild-type protein, mouse testis) (mouse (endogenous in testis)) (UniProt Q8C0V1)
T1 sequence: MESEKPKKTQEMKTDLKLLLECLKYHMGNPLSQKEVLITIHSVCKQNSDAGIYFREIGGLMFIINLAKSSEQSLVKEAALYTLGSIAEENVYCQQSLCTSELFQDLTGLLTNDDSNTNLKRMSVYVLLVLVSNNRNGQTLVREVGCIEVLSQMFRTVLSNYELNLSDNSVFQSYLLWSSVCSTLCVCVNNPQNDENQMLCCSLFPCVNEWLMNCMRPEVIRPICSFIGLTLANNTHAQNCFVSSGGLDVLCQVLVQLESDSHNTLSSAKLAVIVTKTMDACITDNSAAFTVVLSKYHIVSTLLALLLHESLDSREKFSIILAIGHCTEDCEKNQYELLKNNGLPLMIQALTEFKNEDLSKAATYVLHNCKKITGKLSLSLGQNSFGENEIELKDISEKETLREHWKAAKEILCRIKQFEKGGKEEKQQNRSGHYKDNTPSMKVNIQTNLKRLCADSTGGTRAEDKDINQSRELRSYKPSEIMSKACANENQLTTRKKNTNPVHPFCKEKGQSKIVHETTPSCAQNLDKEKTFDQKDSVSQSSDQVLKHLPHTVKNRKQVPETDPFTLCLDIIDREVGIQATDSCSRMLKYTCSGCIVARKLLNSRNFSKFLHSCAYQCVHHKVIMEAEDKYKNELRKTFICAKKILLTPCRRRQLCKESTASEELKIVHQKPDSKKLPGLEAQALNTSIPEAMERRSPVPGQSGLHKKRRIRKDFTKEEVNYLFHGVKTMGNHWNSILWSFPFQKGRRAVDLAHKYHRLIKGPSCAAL

Protein sequences, listed by entry. Tags and fused reporters are not part of them.
UniProt Q9CW03: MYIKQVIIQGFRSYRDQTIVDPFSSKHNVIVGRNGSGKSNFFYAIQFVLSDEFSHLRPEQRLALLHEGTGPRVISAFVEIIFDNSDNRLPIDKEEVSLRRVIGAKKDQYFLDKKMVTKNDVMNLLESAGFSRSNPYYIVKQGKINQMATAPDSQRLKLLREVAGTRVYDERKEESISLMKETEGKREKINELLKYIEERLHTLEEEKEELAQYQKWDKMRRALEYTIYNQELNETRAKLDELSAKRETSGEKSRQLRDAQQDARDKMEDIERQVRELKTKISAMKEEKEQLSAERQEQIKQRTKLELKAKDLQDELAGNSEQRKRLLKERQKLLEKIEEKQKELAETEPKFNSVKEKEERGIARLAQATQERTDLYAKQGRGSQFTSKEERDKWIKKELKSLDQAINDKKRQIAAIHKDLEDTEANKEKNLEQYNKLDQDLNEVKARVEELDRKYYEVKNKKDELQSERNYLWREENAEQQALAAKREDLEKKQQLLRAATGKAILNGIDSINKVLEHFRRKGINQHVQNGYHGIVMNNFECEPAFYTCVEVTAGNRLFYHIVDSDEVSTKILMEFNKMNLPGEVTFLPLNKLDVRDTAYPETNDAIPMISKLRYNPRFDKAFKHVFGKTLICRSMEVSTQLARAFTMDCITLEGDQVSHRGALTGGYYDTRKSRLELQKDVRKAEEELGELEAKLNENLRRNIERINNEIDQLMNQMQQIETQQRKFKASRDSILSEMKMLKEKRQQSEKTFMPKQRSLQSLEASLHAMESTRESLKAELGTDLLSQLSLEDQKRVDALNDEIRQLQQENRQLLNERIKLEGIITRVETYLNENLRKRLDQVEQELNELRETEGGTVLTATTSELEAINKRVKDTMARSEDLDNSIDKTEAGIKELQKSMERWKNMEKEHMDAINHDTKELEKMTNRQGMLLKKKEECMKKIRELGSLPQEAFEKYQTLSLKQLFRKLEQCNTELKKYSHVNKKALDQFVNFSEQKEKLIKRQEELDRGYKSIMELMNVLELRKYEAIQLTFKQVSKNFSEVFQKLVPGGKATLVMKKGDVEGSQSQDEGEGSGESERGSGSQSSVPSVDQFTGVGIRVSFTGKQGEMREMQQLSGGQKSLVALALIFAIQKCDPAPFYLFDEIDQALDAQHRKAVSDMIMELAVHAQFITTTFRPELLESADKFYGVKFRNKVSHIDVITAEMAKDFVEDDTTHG

T2: TERB1^ΔMYB (truncated TERB1, 1-703 amino acids, lacking the C-terminal MYB domain) (mouse (endogenous in testis)) (UniProt Q8C0V1)
T2 sequence: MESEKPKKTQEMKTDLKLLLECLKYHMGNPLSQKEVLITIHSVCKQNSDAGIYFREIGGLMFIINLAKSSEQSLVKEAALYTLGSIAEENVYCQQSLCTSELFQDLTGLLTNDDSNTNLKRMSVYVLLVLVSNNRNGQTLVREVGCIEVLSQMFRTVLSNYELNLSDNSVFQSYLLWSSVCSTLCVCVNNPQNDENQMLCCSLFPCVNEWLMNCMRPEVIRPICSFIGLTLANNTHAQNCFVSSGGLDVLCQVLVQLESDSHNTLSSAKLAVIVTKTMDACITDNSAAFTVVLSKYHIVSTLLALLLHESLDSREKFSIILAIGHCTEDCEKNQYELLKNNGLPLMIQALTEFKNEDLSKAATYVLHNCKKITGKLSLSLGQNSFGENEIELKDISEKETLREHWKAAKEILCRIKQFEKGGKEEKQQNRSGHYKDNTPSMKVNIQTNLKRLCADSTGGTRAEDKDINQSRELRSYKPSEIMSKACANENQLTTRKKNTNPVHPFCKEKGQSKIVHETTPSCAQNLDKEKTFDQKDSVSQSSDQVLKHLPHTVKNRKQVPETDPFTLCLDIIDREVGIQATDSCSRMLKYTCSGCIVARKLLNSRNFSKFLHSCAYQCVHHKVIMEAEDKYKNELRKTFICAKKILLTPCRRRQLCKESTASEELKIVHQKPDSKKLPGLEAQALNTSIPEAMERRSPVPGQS


Columns and labels:
Assay in all cases: co-IP; anti-TERB1 antibody (or control IgG) on Dynabeads protein A; high-salt (400 mM KCl) extract of the pellet of WT or Terb1^ΔMYB/ΔMYB testes; 6 h at 4°C; washed with high-salt buffer; western blot
[1] = target: T1, TERB1 (wild-type protein, mouse testis) (mouse (endogenous in testis))
[2] = target: T1, TERB1 (wild-type protein, mouse testis) (mouse (endogenous in testis)); remark: listed apart in the source
[3] = target: T2, TERB1^ΔMYB (truncated TERB1, 1-703 amino acids, lacking the C-terminal MYB domain) (mouse (endogenous in testis))

binding [1]	binding [2]	binding [3]	Molecule
binds	–	–	SMC3 (from UniProt Q9CW03 1-1217)
–	binds	–	SYCP3 (protein, UniProt P70281 1-254) MLRGCGDSDSSPEPLSKHLKMVPGGRKHSGKSGKPPLVDQPKKAFDFEKDDKDLSGSEEDVADEKAPVIDKHGKKRSAGIIEDVGGEVQNMLEKFGADINKALLAKRKRIEMYTKASFKASNQKIEQIWKTQQEEIQKLNNEYSQQFMNVLQQWELDIQKFEEQGEKLSNLFRQQQKIFQQSRIVQSQRMFAMKQIHEQFIKSLEDVEKNNDNLFTGTQSELKKEMAMLQKKVMMETQQQEMANVRKSLQSMLF
–	binds	binds	MAJIN (protein, UniProt Q9D992 1-256) MSLKPFTYPFPETRFLHAGPNVYKFKIRYGNSIRGEEIEDKEVIVQELEDSIRAVLANMDSLQPFVTEHFIVFPYKSKWERVSHLKFKHGESILTPYPFVFTLYIEMKWFAEDLPSGKPADDIPLELVLAETEAEEATMRKWKRKLMEEPSSPSRQGPHRAKMETSSEASSNKKPLKESKRSTDEEAQQEYQDTPASNAIAVKEQDAALGHGLQGLVVPPLQHSSPPPPKEPGARGFLGFLSALFPFRYFFKKSGQ
–	binds	binds	TERB2 (protein, UniProt Q9D494 1-218) MFQGQRGWFCGSVSQDLRQIWEDEGGMVSDVKAADFLFSCDASHPDTLRIYQSLEYIEDNATVFHAYYLAAIANTEMKNSVALGHFVLPPACLQKEIRRKIGSFIWEQDEKFQIEKHDRMASSDKENIRPTPEHKQELSKSAEHHLTRTPVIEKQMCFPLHSYPVNNMVTGYISIDALEKFLGELHDFTPGSSGYLAYHIQDEINMSAIKNKLRRKLS

From paper PMC8867601, “The TERB1 MYB domain suppresses telomere erosion in meiotic prophase I”
